# Measurements: paper PMC7819943, “Rice protein-binding microarrays: a tool to detect cis-acting elements near promoter regions in rice”
# Amino acid sequences for entries named in this document (tags omitted).
# UniProt Q0JBA9, entry or part of it: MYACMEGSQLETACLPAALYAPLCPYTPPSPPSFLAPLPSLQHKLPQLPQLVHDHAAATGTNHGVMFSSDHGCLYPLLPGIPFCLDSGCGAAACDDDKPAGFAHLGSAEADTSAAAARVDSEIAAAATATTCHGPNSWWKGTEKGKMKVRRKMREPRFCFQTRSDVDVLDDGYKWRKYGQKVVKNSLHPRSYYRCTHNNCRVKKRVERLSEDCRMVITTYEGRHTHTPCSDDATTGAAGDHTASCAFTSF
# The list shows a part of the results.
# Target: OsWRKY34 (Oryza sativa, UniProt Q0JBA9 1-250)
# Assay: protein-binding microarray (RPBM); PBS, 2% BSA, 51.3 ng/ul salmon testes DNA, 50 uM zinc acetate, 200 nM TF, 25 C, 1 h; high values mean tight binding
# Conditions: protein: recombinant; tags: N-terminal polyhistidine and DsRed monomer fusion (pET32a); label: CyDye5-dUTP incorporated in the synthesized complementary strand; 3' TTTTT single-stranded linker to array surface; dsDNA, one strand shown
# Method in brief: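 In PBS with 2% BSA, salmon testes DNA and 50 µM zinc acetate, 200 nM protein was incubated on a custom Agilent array at 25 °C for 1 h and then washed off. The array had been made double-stranded by primer extension with Cy5-dUTP and blocked with 2% BSA. The proteins were transcription factors fused N-terminally to polyhistidine and DsRed, expressed in E. coli BL21-CodonPlus and purified on Ni–NTA. The binding signal is per-feature fluorescence intensity (arbitrary units) from an Axon 4000B scanner.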
row,Sequence,binding signal
1,AGGTTTTGTTCTGAGGAATTTCTCTCTTCTTTTTTTTTCTCGGAGTCACCTAGTGCAG,10500 fluorescence intensity (a.u.)
2,TCACAGTACTCCTTCACAACCGTGTCCTTGATTCTGGAACCGGAGTCACCTAGTGCAG,9070 fluorescence intensity (a.u.)
3,GCTGACGCACAAGAATTCTTTTTTTCTCTCAAAATCTTTTCGGAGTCACCTAGTGCAG,8860 fluorescence intensity (a.u.)
4,CTGCATTCCTATCCAAGCTCGCCTTAACCGCCGAATCTCCCGGAGTCACCTAGTGCAG,8380 fluorescence intensity (a.u.)
5,TTCTACCTCGCATTTCTCTCATCTCCCTTTCCACAATTCCCGGAGTCACCTAGTGCAG,8990 fluorescence intensity (a.u.)
6,TTTGGCACAGCATCACATATATGTTTGACTCTACATTCTCCGGAGTCACCTAGTGCAG,8100 fluorescence intensity (a.u.)
7,CCTCCGACCTAAAATATAACAACTTTCAGCCTCTAGAATTCGGAGTCACCTAGTGCAG,8910 fluorescence intensity (a.u.)
8,CCATATATGTTTTTTTACTATACTATTTTATCTATATAGTCGGAGTCACCTAGTGCAG,10300 fluorescence intensity (a.u.)
9,TTCCGCCCACAGCCGCCGGAGCCACCTCCCGCTCCTCTCCCGGAGTCACCTAGTGCAG,8440 fluorescence intensity (a.u.)
10,ACACTTTGATCCCGATCGATGGCGCCATCCACTAATTGATCGGAGTCACCTAGTGCAG,10700 fluorescence intensity (a.u.)
11,CTCCTCTATCCGAGCAACGACGCCGCCGACTTTTCCAGACCGGAGTCACCTAGTGCAG,10600 fluorescence intensity (a.u.)
12,TCACCACTAATATTTCTCGTGATACGGTTTGGCTTATTTTCGGAGTCACCTAGTGCAG,11500 fluorescence intensity (a.u.)
13,AGAAGCAGTGCTGTCTCCCAGCCTCACGCGTCCTCTTTTTCGGAGTCACCTAGTGCAG,8930 fluorescence intensity (a.u.)
14,CCTTTCTTCTTCCGCCTCTCCTCCATGGCGTGACCTGACTCGGAGTCACCTAGTGCAG,9000 fluorescence intensity (a.u.)
15,CTTCGATTGGTTTGTTGGTTTGACTGGAATTCGGATGGATCGGAGTCACCTAGTGCAG,10100 fluorescence intensity (a.u.)
16,TGTTCTCTACTCCTATGGCCAATTAATCATCAATCTCTCACGGAGTCACCTAGTGCAG,10900 fluorescence intensity (a.u.)
17,CTGCACATGATTTCAATCTACTATGGACATTCTCACTCTCCGGAGTCACCTAGTGCAG,12100 fluorescence intensity (a.u.)
18,GTCGAAACCGCAAAACCGCCTCTCTCTCTCTCTCTCTCTCCGGAGTCACCTAGTGCAG,8720 fluorescence intensity (a.u.)
19,TTGTTGCGCAGTGCCTGCCCCTGCCACGCCGCGTAGGACTCGGAGTCACCTAGTGCAG,8660 fluorescence intensity (a.u.)
20,CGTGCCTCTCCTCCTCCGCCGCCCAACATCACTGGCGTCGCGGAGTCACCTAGTGCAG,8430 fluorescence intensity (a.u.)
21,GACACCTACTAGTTTAGCCATCTGCTGGTCTCGATCTCCTCGGAGTCACCTAGTGCAG,9730 fluorescence intensity (a.u.)

row,Sequence,binding signal
1,CTTCATACCACATCTCCTCCAGTTCTCTCTCCTCCTCCGTCGGAGTCACCTAGTGCAG,8720 fluorescence intensity (a.u.)
2,TAGTTATTCTAGGGGAGGGGTGTAGAATAGATTCACTATACGGAGTCACCTAGTGCAG,9720 fluorescence intensity (a.u.)
3,CTGCCTGCAGCTCACCACACTCCACCAGTTGTCCAGTTCACGGAGTCACCTAGTGCAG,10300 fluorescence intensity (a.u.)
4,TCCAATCCTGTCAGCTATTTCTCAGTGTCACGGTATTTCGCGGAGTCACCTAGTGCAG,12200 fluorescence intensity (a.u.)
5,GGTAGGCTCCATCCGCGTAGGCATATGATTCTTGGATGATCGGAGTCACCTAGTGCAG,8870 fluorescence intensity (a.u.)
6,GCGGGTCGGGGCAGGCGAAGCGGTCAAAACGTACTTAAAACGGAGTCACCTAGTGCAG,8090 fluorescence intensity (a.u.)
7,TTTTGTTCATTGTTTCTCGGTAAAATTTCTGCAATTTTGTCGGAGTCACCTAGTGCAG,10600 fluorescence intensity (a.u.)
8,GCTCCACCGCCGTCGTCTCCGCCTTCTTCCTCGCCTGCGGCGGAGTCACCTAGTGCAG,11100 fluorescence intensity (a.u.)
9,CCTGATACAAATTTTGACAATTTGACTTTTTGCAAAAACTCGGAGTCACCTAGTGCAG,8900 fluorescence intensity (a.u.)
10,CCCTTCGCTGTCTCTCACGCCGCCACCCTTCCCAGTCTTCCGGAGTCACCTAGTGCAG,8570 fluorescence intensity (a.u.)
11,GTTGGTCTGACCATATTCTTTATTTTTATTGTTTTGTACACGGAGTCACCTAGTGCAG,12700 fluorescence intensity (a.u.)
12,TTCTCCTTATTGTTGTTGTCGTCCTTCTTCTTCTCCAGTCCGGAGTCACCTAGTGCAG,8730 fluorescence intensity (a.u.)
13,TGTTGCGCTATTCTTTGCTTCGGTGGTACGTTGCCGACCACGGAGTCACCTAGTGCAG,10400 fluorescence intensity (a.u.)
14,GTCTTTTCGGTTCGATCTTATTTTACCCACCCCTACTCGACGGAGTCACCTAGTGCAG,10300 fluorescence intensity (a.u.)
15,GAAGTAGGTGCTACACTCATTTTGCACTTTTGCGGTTCAACGGAGTCACCTAGTGCAG,8310 fluorescence intensity (a.u.)
16,CCATCGGCTGCACCTCTCTGCGCCTAGCCGGTCTCCGACCCGGAGTCACCTAGTGCAG,8050 fluorescence intensity (a.u.)
17,CCATCCACGCGACGCGGCACAACCTCCCGCGCCCAACACACGGAGTCACCTAGTGCAG,8760 fluorescence intensity (a.u.)
18,TCATCGTTGCTCAGTTAACCTTTGGTAGCTTCTTCTATTGCGGAGTCACCTAGTGCAG,8790 fluorescence intensity (a.u.)
19,TCCGAGCCGCTCGTTCCATTTCCATTCCTACGCCGAGGTCCGGAGTCACCTAGTGCAG,11000 fluorescence intensity (a.u.)
20,TCTTCAAGCCTGCAACAACCGCATCTACTTCCCACGTCATCGGAGTCACCTAGTGCAG,12000 fluorescence intensity (a.u.)
21,ATAATACAGATTTCTTTTCTTCTAATTAGTAGTATTATTACGGAGTCACCTAGTGCAG,8310 fluorescence intensity (a.u.)

# Single values from above:
# CCATCGGCTGCACCTCTCTGCGCCTAGCCGGTCTCCGACCCGGAGTCACCTAGTGCAG | binding signal: 8050 fluorescence intensity (a.u.)
# TCCGAGCCGCTCGTTCCATTTCCATTCCTACGCCGAGGTCCGGAGTCACCTAGTGCAG | binding signal: 11000 fluorescence intensity (a.u.)
# TCCAATCCTGTCAGCTATTTCTCAGTGTCACGGTATTTCGCGGAGTCACCTAGTGCAG | binding signal: 12200 fluorescence intensity (a.u.)

# Carrying on.

row,Sequence,binding signal
1,ATGTCGGCCGTGTCGTCAGCTTGTCGCATATGCCAGATGCCGGAGTCACCTAGTGCAG,8030 fluorescence intensity (a.u.)
2,ATAATCATTCTTCTTCACCTACTTTCTCTTTTTAACCAATCGGAGTCACCTAGTGCAG,10100 fluorescence intensity (a.u.)
3,GCAGTATTTGTCACTTTTCCTGACCGACCACTTGCGTTTGCGGAGTCACCTAGTGCAG,10100 fluorescence intensity (a.u.)
4,ATTCGATTTTCTTGCACCTAAACACATGCAACCCATCATTCGGAGTCACCTAGTGCAG,10100 fluorescence intensity (a.u.)
5,GAACTCCCGCTTCTATCATCTCTTTCAAATTGATGTTCCACGGAGTCACCTAGTGCAG,10800 fluorescence intensity (a.u.)
6,CATGCGACAGCCTGTTTTGACTGCCTTTTGTTTTATATTGCGGAGTCACCTAGTGCAG,12000 fluorescence intensity (a.u.)
7,TGTGTGCGTGTGTTCCTCCTGTCAGTCACTTGCAAGCTGCCGGAGTCACCTAGTGCAG,8120 fluorescence intensity (a.u.)
8,GTTAATGTTTCTGGCTGCTGTCCTTCCGGCGACCCACCACCGGAGTCACCTAGTGCAG,9200 fluorescence intensity (a.u.)
9,GCTCGCACTTTTTCTATTCTATAATCTACGCTATCTGTTCCGGAGTCACCTAGTGCAG,8590 fluorescence intensity (a.u.)
10,CCCGACCTCGTCTTCAGCTCCGATCGCTCGCCGCGGCAGACGGAGTCACCTAGTGCAG,8590 fluorescence intensity (a.u.)
11,TTTCGATCCGTTGTCCTCAATAAACCAACTTTTGTATTTTCGGAGTCACCTAGTGCAG,10800 fluorescence intensity (a.u.)
12,CCGCTCGCTCGCCGCCGCCGCCGCGTCGTCGTCGTCTCCGCGGAGTCACCTAGTGCAG,8950 fluorescence intensity (a.u.)
13,GGAAGCGGGCGCGGGCGGGGCAGGGGCAGCAGGCGGCGGTCGGAGTCACCTAGTGCAG,8280 fluorescence intensity (a.u.)
14,TTGTTTGCAACGTTTGACCGCTCATCTTATTCAATTTTTTCGGAGTCACCTAGTGCAG,9070 fluorescence intensity (a.u.)
15,TACGGGGCGGCTGATGCTTCTACTCCATATTAACTATTCCCGGAGTCACCTAGTGCAG,10200 fluorescence intensity (a.u.)
16,CTGCTGCATTTACACGCCATTTTTTTTCCGCTCTTCTTTTCGGAGTCACCTAGTGCAG,12800 fluorescence intensity (a.u.)
17,CATCCTTTTTTCTAGTCCACAAACGCTAGCTTCGCCCGCCCGGAGTCACCTAGTGCAG,9950 fluorescence intensity (a.u.)
18,TCCAACCTCTTAGTTTCCTGCTTGGTTTTGATCGATTCAACGGAGTCACCTAGTGCAG,9880 fluorescence intensity (a.u.)
19,GGCTTCAGTTTTCTCTGCCCACCGATGATCGGTCCATCCGCGGAGTCACCTAGTGCAG,8830 fluorescence intensity (a.u.)
20,TGCCACGTCATCACCCTTTATTTACCATCTTCTCTCCCTTCGGAGTCACCTAGTGCAG,11000 fluorescence intensity (a.u.)
21,TGCAGTCGTAAGCCCTCATATTACGTTTATCAGCCTTCTGCGGAGTCACCTAGTGCAG,8330 fluorescence intensity (a.u.)

row,Sequence,binding signal
1,TCAGATTCTGCACCCTTCTCGAACGAAACAATATCACCGCCGGAGTCACCTAGTGCAG,8140 fluorescence intensity (a.u.)
2,CATATGACATTATTACTATGGTTCTTTGTTATAGTCCACTCGGAGTCACCTAGTGCAG,10400 fluorescence intensity (a.u.)
3,CGTGCCCGACTCCACACACCACTCCACCGCATCGCACTCGCGGAGTCACCTAGTGCAG,8680 fluorescence intensity (a.u.)
4,CACTGATTTTGATAGTTGAGGGACCCGTTGTATTTGATTTCGGAGTCACCTAGTGCAG,8120 fluorescence intensity (a.u.)
5,GTTATCTCTGGTAATTAGTTTCTTGTCTTCATCTACTCCTCGGAGTCACCTAGTGCAG,9590 fluorescence intensity (a.u.)
6,TCATCGAGGACCGTCATTTGTTTCGTCAATCTTGGTATCCCGGAGTCACCTAGTGCAG,9860 fluorescence intensity (a.u.)
7,AGCAGCTGCCCCGAGTCGCCAGGTACATGAACATTTTACACGGAGTCACCTAGTGCAG,8090 fluorescence intensity (a.u.)
8,TACCTTTTCCTGCAAATGTTACTTCTCCTTCATCCTTTGCCGGAGTCACCTAGTGCAG,10700 fluorescence intensity (a.u.)
9,TACCGGCAGCTGCCTCTGACTCGTCTCCTCGTTGCTCCTCCGGAGTCACCTAGTGCAG,9240 fluorescence intensity (a.u.)
10,CACTACTTATCCAATCACAACCCTACATCACTCACTTCTACGGAGTCACCTAGTGCAG,11600 fluorescence intensity (a.u.)
11,CGCTTTTATCGCCGCCGCCGCCGCCGCCGCCTCCGCCGCCCGGAGTCACCTAGTGCAG,8800 fluorescence intensity (a.u.)
12,GCTTGGGGTGGAATCGCGTGGACAGCGTGGGCCTCAGTCACGGAGTCACCTAGTGCAG,12000 fluorescence intensity (a.u.)
13,GCATTTCAAATTTCGAATTCCCAAACCTATCCATTCCAAACGGAGTCACCTAGTGCAG,9310 fluorescence intensity (a.u.)
14,AAGATGATTCAGGCATTGATCTTCCCTACTCTACTATGTCCGGAGTCACCTAGTGCAG,8760 fluorescence intensity (a.u.)
15,ACTTTCCGTTCAGAACCTGGCACCGTCTCTCTCTTCTTTCCGGAGTCACCTAGTGCAG,8570 fluorescence intensity (a.u.)
16,AGCCAGGTCTCTTCGTTTTTCTTCGCGTTGATTTTTTTTTCGGAGTCACCTAGTGCAG,13800 fluorescence intensity (a.u.)
17,CCGTTCATAACACCCATGGCTTTGGCACCACACGACACAACGGAGTCACCTAGTGCAG,8550 fluorescence intensity (a.u.)
18,GACGGCGACCGAAGGGGACAAGGAGGCGGGGCGGGGCGGCCGGAGTCACCTAGTGCAG,14000 fluorescence intensity (a.u.)
19,CGATCTGCTTACACGGCATATTCTTACTGGATGGTGTACACGGAGTCACCTAGTGCAG,8720 fluorescence intensity (a.u.)
20,ATTGGAGTTAGTGGTGGGCTATACTATTAGACGTCCATTGCGGAGTCACCTAGTGCAG,8520 fluorescence intensity (a.u.)
21,CGAGGAACACACACACCCCTACCCGTCTCTGTTCATCTCCCGGAGTCACCTAGTGCAG,10900 fluorescence intensity (a.u.)

# Given bar-delimited: entries from further up.
row | Sequence | binding signal
12 | TCACCACTAATATTTCTCGTGATACGGTTTGGCTTATTTTCGGAGTCACCTAGTGCAG | 11500 fluorescence intensity (a.u.)
7 | AGCAGCTGCCCCGAGTCGCCAGGTACATGAACATTTTACACGGAGTCACCTAGTGCAG | 8090 fluorescence intensity (a.u.)
19 | CGATCTGCTTACACGGCATATTCTTACTGGATGGTGTACACGGAGTCACCTAGTGCAG | 8720 fluorescence intensity (a.u.)
